According to the supplement of paper PMC10849652:
The list shows a part of the results.

The chains behind the UniProt entries cited, without tags or fusion partners. Where a name states a change or a piece, a line headed by the entry shows the natural chain unless it says otherwise.
UniProt Q96QU6: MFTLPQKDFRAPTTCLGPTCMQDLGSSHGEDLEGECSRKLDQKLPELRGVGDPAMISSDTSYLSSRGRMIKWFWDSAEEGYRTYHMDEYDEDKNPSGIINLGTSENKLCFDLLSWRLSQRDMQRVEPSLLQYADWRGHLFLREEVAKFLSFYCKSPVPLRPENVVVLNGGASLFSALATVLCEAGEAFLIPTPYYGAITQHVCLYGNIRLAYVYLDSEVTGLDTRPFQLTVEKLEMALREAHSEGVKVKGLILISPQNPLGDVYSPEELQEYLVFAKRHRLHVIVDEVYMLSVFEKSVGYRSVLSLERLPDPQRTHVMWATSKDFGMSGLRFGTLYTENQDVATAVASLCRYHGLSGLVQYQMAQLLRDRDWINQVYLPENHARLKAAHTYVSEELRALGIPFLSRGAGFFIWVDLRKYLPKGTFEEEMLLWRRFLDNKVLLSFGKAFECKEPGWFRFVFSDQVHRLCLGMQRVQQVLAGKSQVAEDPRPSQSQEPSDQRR
UniProt P00519, whole entry, looked up: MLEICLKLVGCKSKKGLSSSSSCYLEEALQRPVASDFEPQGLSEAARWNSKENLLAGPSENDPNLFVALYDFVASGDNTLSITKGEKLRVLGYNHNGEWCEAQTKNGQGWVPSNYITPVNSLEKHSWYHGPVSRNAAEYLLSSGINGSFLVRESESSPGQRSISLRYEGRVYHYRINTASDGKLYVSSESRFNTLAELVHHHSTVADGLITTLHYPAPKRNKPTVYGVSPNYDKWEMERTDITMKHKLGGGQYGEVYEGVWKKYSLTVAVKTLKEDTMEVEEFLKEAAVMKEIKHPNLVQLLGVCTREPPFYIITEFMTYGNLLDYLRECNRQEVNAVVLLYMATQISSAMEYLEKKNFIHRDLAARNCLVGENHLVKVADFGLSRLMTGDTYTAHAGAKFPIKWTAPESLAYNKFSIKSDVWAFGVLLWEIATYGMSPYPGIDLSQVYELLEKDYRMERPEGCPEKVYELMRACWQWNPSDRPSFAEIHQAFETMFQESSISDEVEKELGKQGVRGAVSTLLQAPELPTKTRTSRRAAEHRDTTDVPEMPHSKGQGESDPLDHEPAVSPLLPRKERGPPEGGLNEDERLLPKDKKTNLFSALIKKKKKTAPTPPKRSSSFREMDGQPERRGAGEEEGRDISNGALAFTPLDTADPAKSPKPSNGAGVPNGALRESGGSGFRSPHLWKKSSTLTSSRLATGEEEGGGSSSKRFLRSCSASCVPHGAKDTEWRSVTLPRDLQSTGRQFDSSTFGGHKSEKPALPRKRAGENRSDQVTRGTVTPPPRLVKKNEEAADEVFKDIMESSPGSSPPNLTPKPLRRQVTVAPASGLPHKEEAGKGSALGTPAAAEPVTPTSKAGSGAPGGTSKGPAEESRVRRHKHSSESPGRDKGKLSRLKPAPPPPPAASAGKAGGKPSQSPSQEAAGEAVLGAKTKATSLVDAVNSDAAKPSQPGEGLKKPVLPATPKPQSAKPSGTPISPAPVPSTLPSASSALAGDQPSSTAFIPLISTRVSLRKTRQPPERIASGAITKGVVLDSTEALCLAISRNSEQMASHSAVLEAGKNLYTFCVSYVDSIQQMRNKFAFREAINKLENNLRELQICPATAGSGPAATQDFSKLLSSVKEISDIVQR
UniProt Q9NX38: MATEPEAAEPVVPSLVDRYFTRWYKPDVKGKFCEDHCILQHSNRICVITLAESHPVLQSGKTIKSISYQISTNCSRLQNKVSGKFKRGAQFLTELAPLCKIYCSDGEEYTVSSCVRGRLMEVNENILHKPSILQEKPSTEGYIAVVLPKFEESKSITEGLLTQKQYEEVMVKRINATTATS
UniProt P28288: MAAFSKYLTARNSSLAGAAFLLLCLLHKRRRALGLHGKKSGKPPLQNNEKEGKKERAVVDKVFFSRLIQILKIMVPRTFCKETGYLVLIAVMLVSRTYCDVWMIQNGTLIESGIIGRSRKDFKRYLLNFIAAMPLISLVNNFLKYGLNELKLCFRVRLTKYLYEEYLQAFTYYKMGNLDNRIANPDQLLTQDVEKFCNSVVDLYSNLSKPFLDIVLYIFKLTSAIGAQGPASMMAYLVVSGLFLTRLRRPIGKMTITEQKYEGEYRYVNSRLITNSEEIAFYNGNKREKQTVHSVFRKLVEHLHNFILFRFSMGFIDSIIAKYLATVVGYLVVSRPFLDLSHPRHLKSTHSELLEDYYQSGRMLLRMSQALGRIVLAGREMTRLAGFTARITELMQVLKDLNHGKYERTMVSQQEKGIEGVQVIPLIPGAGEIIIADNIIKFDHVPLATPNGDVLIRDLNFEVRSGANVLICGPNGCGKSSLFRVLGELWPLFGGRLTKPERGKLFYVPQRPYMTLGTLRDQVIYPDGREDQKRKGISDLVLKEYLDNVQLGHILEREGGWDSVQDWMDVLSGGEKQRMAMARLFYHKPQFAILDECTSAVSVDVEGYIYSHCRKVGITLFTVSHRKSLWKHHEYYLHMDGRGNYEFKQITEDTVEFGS
UniProt P01023, whole entry, looked up: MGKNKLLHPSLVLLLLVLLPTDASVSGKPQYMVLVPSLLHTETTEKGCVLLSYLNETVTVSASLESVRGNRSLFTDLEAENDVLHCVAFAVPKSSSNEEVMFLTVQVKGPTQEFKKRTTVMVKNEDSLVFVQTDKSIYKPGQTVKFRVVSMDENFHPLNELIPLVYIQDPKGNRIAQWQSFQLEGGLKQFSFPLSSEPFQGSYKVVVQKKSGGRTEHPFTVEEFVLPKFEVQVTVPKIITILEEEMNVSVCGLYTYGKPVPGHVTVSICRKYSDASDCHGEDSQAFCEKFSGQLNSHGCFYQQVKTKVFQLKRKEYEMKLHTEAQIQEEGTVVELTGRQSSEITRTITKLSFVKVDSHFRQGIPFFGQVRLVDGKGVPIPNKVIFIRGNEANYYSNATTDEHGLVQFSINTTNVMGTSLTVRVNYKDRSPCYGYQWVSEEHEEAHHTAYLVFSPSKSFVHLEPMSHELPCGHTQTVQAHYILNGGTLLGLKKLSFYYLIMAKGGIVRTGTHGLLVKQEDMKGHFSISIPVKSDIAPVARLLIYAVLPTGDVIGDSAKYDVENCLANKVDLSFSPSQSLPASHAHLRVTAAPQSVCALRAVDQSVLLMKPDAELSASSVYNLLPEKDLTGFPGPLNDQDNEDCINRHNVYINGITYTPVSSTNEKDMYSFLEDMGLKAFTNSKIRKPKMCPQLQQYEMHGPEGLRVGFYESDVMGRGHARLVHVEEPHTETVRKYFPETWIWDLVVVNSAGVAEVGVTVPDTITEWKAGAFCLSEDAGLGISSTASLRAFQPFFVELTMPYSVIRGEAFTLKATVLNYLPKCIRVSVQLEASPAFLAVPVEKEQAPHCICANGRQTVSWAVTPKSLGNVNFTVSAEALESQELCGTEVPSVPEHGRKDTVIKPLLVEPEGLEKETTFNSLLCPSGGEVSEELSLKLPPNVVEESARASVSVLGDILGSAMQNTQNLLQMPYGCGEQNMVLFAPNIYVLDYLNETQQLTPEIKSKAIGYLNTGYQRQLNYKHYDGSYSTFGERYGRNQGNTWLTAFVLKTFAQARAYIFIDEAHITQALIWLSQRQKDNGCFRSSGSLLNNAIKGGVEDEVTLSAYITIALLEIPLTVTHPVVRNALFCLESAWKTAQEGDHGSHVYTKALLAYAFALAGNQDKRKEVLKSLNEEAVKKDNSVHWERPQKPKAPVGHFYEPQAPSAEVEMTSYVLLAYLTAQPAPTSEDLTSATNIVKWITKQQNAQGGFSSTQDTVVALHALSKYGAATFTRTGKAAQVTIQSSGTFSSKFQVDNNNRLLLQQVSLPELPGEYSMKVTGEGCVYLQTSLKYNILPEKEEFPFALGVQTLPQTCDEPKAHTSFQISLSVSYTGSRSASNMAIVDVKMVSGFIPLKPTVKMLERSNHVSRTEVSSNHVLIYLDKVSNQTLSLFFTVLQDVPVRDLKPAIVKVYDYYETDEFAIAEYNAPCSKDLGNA
UniProt Q9NRK6: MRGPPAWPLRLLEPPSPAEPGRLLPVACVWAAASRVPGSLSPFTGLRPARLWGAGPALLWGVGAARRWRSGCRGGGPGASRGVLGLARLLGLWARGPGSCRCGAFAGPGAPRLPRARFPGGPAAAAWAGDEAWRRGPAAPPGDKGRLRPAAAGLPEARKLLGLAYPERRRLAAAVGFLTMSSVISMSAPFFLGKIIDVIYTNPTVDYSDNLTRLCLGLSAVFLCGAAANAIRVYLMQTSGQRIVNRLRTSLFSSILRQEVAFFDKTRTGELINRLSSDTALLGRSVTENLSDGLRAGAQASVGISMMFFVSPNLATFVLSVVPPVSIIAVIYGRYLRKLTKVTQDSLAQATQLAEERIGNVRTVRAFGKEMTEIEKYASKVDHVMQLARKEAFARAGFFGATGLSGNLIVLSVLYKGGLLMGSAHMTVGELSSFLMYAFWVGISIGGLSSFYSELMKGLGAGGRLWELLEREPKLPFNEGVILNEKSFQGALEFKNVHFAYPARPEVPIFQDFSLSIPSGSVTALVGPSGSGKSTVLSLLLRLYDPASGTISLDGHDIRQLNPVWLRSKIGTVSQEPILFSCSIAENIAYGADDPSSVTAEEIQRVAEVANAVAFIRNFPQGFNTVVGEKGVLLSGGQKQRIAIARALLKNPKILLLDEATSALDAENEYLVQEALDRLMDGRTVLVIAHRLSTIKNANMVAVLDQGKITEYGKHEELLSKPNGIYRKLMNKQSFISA
UniProt Q9ULW3: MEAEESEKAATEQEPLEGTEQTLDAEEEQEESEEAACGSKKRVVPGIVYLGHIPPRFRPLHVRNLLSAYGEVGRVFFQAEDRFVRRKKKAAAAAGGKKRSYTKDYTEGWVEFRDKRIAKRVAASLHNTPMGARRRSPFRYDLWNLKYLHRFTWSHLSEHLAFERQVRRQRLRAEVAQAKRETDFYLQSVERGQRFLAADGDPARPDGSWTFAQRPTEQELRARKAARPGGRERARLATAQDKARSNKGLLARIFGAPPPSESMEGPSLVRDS
UniProt Q9BR61: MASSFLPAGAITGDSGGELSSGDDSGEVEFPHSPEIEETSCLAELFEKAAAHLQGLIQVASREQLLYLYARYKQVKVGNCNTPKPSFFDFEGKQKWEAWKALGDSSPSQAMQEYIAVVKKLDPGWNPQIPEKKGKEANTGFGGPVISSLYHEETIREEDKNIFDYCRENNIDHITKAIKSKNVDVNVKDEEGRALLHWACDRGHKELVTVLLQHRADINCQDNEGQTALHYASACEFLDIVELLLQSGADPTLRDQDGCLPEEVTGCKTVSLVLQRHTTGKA
UniProt Q8NE71: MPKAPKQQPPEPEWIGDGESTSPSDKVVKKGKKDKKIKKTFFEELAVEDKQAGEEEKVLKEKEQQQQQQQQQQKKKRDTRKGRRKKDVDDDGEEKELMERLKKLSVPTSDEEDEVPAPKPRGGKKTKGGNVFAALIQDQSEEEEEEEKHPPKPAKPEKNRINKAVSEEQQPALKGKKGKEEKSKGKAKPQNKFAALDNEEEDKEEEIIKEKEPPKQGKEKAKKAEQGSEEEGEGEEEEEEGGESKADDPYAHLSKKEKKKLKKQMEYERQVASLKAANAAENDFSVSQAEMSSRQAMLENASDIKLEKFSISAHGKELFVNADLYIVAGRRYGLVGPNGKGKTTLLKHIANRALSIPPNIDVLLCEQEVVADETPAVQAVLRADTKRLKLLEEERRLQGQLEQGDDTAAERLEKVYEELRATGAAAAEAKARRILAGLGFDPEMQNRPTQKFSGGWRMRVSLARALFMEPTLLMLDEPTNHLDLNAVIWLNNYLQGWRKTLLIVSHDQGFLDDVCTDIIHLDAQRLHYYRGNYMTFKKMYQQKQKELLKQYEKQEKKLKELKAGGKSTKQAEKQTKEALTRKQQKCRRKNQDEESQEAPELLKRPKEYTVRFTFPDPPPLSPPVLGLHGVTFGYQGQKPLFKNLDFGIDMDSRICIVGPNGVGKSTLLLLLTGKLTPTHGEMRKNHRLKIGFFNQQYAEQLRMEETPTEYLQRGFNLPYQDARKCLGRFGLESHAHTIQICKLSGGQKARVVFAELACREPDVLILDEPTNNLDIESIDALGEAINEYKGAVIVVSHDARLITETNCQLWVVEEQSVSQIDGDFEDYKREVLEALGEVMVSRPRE
UniProt Q9BTE6: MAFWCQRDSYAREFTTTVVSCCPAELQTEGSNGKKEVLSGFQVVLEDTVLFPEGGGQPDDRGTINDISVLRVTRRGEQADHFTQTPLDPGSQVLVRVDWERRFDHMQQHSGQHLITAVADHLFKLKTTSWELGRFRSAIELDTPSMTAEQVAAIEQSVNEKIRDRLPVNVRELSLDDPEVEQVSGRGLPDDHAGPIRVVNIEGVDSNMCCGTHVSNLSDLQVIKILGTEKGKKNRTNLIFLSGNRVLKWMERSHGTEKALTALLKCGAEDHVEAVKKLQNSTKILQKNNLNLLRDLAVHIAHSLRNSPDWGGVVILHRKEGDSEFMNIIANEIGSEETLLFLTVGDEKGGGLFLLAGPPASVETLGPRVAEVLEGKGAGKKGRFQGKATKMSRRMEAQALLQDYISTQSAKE

compound: C1=CC2=C(C=CC(=C2)/C=C\3/C(=O)NC(=NCC4=CC=CS4)S3)N=C1; test: log2 fold change, soluble protein after heating vs DMSO (PISA); higher = thermal stabilisation; K562 lysate, 10 uM; active = over 0.2 and 3.5 SD of the protein, either way, in both replicates (recomputed)
How it was run: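 Log-two fold change in thermal stability relative to solvent controls is reported from duplicates. For each sample, crude K562 extract from dounce-homogenised pellets in PBS pH 7.4 with 1 mM MgCl2, at 1 mg/mL protein, was treated with 10 μM compound for 30 min. Aliquots heated for 3 min across 48°C-58°C were pooled, brought to 0.5% NP-40 at 4°C and cleared at 21,000xg for 90 min. The supernatant was quantified by TMTpro 16plex LC-MS/MS with channel sums equalised.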

log2 fold change, inactive:
AAK1, A0A096LP25 0.328
AAMDC (UniProt Q9H7C9) -0.027
ACIN1 (UniProt E7EQT4) 0.05
ACCS (UniProt Q96QU6) -0.03
A0A0B4J2A0, A0A0B4J2A0 -0.048
ABL1 isoform 2 (UniProt P00519) 0.026
ABITRAM (UniProt Q9NX38) -0.032
AACS (UniProt Q86V21) -0.042
ABCF2 isoform 2 (UniProt Q9UG63) -0.025
ACACA isoform 4 (UniProt Q13085) -0.012
ABCB7 isoform 2 (UniProt O75027) -0.022
ACADVL isoform 3 (UniProt P49748) 0.025
ABCC4 (UniProt O15439) 0
ABCD3 (UniProt P28288) -0.051
ABRAXAS2 (UniProt Q15018) -0.03
ACBD3 (UniProt Q9H3P7) -0.004
ACIN1 isoform 5 (UniProt Q9UKV3) -0.028
A2M (UniProt P01023) 0.063
AARS (UniProt P49588) -0.008
ABI1 isoform 9 (UniProt Q8IZP0) 0.01
AATF (UniProt Q9NY61) -0.036
AAGAB (UniProt Q6PD74) -0.016
A0A096LPI6, A0A096LPI6 0.016
ABCB10 (UniProt Q9NRK6) -0.002
ABHD10 (UniProt Q9NUJ1) 0.001
ABHD17A isoform 2 (UniProt Q96GS6) 0.025
ABT1 (UniProt Q9ULW3) -0.002
ACO1 (UniProt P21399) 0.011
ACADS (UniProt P16219) 0.062
ACBD6 (UniProt Q9BR61) 0.024
ABCF1 (UniProt Q8NE71) 0.003
ABHD16A (UniProt O95870) 0.046
AARSD1 isoform 3 (UniProt Q9BTE6) 0.014

Fetched one by one from the list above (two):
log2 fold change, inactive:
ABRAXAS2 (UniProt Q15018) -0.03
A2M (UniProt P01023) 0.063
